Several values for one entry are separate records, joined by “and”; a condition that tells them apart may be missing. Identical values can stand only once. Counter-ions that a name gives are not always drawn. ± gives the standard deviation of the averaged measurements. The list shows a part of the results. Single values are uncertain here, since repeats match poorly.
test system: A549; assay: surface PD-L1 immunofluorescence intensity relative to IFN-gamma-only control (ratio); higher = more PD-L1 expression; settings: 10 µM; exposure time 24 h; IFN-gamma 100 ng/mL

SMILES | surface PD-L1 immunofluorescence intensity
O=C(O)CCCN1CCC(O[C@@H](c2ccc(Cl)cc2)c2ccccn2)CC1 [Bepotastine Besilate] | 0.997
Nc1ncn(C2CC(O)C(CO)O2)c(=O)n1 (configuration not stated) [5-Aza-2-deoxycytidine] | 1.09
NC(C(=O)O)c1ccc(C(=O)O)c(C(=O)O)c1 (configuration not stated) | 1.03
NNC(=O)c1ccncc1 [Isoniazid] | 0.968
CN(C(=O)CCCOc1ccc2[nH]c(=O)ccc2c1)C1CCCCC1 [Cilostamide] | 0.978
CN1CCN(C(=O)c2nc3ccc(Cl)cc3[nH]2)CC1 | 1.05
COc1ccc(Br)cc1S(=O)(=O)NC(=O)/C=C/c1ccccc1Cc1ccc2ccccc2c1 | 1.01
CCN1CCCC1CNC(=O)c1cc(S(N)(=O)=O)ccc1OC (configuration not stated) [Sulpiride] | 0.905
COc1ccc(-c2ccc3cc(C(=O)O)ccc3c2)cc1C12CC3CC(CC(C3)C1)C2 [Adapalene] | 0.969
O=C(Cc1ccccc1)Nc1cccc(C(=O)Nc2ccccc2C(=O)O)c1 | 1.11
O=C(O)c1cccnc1 [Niacin] | 1.08
CCCCc1oc2ccccc2c1C(=O)c1cc(I)c(OCCN(CC)CC)c(I)c1 [Amiodarone] | 0.883
CCCCc1oc2ccccc2c1C(=O)c1cc(I)c(OCCN(CC)CC)c(I)c1 [Amiodarone hydrochloride] | 0.952
O=c1[nH]c(=O)n([C@H]2C[C@H](O)[C@@H](CO)O2)cc1I [Idoxuridine] | 1.21
Cc1cccc(N(C)C(=S)Oc2ccc3ccccc3c2)c1 [Tolnaftate] | 0.908
CN(Cc1cc(Br)cc(Br)c1N)C1CCCCC1 [Bromhexine hydrochloride] | 1.01
C[C@H](CS)C(=O)N1CCC[C@H]1C(=O)O [Captopril] | 0.933 ± 0.09
C[C@H](CS)C(=O)N1CCC[C@H]1C(=O)O [Captopril (Capoten)] | 1.08
CC1(C)O[C@@H]2C[C@H]3[C@@H]4C[C@H](F)C5=CC(=O)C=C[C@]5(C)[C@H]4[C@@H](O)C[C@]3(C)[C@]2(C(=O)CO)O1 [Flunisolide] | 0.801
Nc1nc(N)c2nc(-c3cccc(O)c3)c(-c3cccc(O)c3)nc2n1 | 0.991
NCCc1ccc(O)c(O)c1 [Dopamine hydrochloride] | 0.893

SMILES | surface PD-L1 immunofluorescence intensity
O=C(/C=C/c1cccnc1)NCCCCC1CCN(C(=O)c2ccccc2)CC1 | 0.935
CCCNC(=O)N1N=C(c2ccc(N)cc2)c2cc3c(cc2C1C)OCO3 (configuration not stated) | 0.948
Cc1c(Nc2ncccc2C(=O)O)cccc1C(F)(F)F [Flunixin meglumine] | 1.06
CC[C@H](c1ccc(O)cc1)[C@@H](CC)c1ccc(O)cc1 [Hexestrol] | 1.05
CC[C@H](c1ccc(O)cc1)[C@@H](CC)c1ccc(O)cc1 [Hexestrol (Bibenzyl)] | 1.03
N#CC1(c2ccc(NC(=O)c3cccnc3NCc3ccncc3)cc2)CCCC1 [Apatinib (YN968D1)] | 1.17
CN1CCN(C(=O)c2cc3cc(Cl)ccc3[nH]2)CC1 | 0.922
CCCN(CC1CC1)c1nc(C)nc(Nc2c(Cl)cc(Cl)cc2Cl)c1Cl | 0.993
Cc1ccc2c(c1)c1c(n2CCc2ccc(C)nc2)CCN(C)C1 [Dimebon (Latrepirdine)] | 0.965
COc1ccc(CNc2nc(N3CCC[C@H]3CO)ncc2C(=O)NCc2ncccn2)cc1Cl [Avanafil] | 0.906
O=C1NC(c2cccc([N+](=O)[O-])c2)=CCN1c1ccccc1O [Icilin] | 0.932
CC(=O)OCC(=O)[C@@]1(O)CC[C@H]2[C@@H]3CCC4=CC(=O)C=C[C@]4(C)[C@H]3[C@@H](O)C[C@@]21C [Prednisolone acetate (Omnipred)] | 0.723
CCCCOc1ccc(C(=O)CCN2CCCCC2)cc1 [Dyclonine hydrochloride] | 0.913
C=C1C(=O)O[C@H]2[C@H]1CC/C(C)=C/CC[C@@]1(C)O[C@@H]21 [Parthenolide] | 1.02
COc1ccc(CCC(=O)Nc2nc3ccc(Cl)cc3s2)cc1OC | 0.967
CN1[C@@H]2CC[C@H]1C[C@@H](OC(=O)C(O)c1ccccc1)C2 (mixture of isomers) [Homatropine hydrobromide (R,S)] | 0.916
O=[N+]([O-])c1cn2c(n1)OC[C@@H](OCc1ccc(OC(F)(F)F)cc1)C2 | 1.02
Cn1nnc2c(C(N)=O)ncn2c1=O [Temozolomide] | 1.01 ± 0.054
Cn1nnc2c(C(N)=O)ncn2c1=O [Methazolastone] | 0.952
C[C@]12CC[C@H](O)CC1=CC[C@@H]1[C@@H]2CC[C@]2(C)C(c3cccnc3)=CC[C@@H]12 [Abiraterone (CB-7598)] | 1.13
COc1ccc(CCC(=O)c2c(O)cc(O[C@@H]3O[C@H](CO)[C@@H](O)[C@H](O)[C@H]3O[C@@H]3O[C@@H](C)[C@H](O)[C@@H](O)[C@H]3O)cc2O)cc1O [Neohesperidin dihydrochalcone (Nhdc)] | 1.07

SMILES | surface PD-L1 immunofluorescence intensity
CC(C)(C)CC(C)(C)c1ccc(OCCOCC[N+](C)(C)Cc2ccccc2)cc1 [Benzethonium chloride] | 1.22
CC(C)(C)NC(=O)[C@H]1CC[C@H]2[C@@H]3CC[C@H]4NC(=O)C=C[C@]4(C)[C@H]3CC[C@]12C [Finasteride] | 1.05 ± 0.051
C=CC[N+]1([C@H]2C[C@H]3[C@@H]4CC[C@H]5C[C@H](O)[C@@H](N6CCOCC6)C[C@]5(C)[C@H]4CC[C@]3(C)[C@H]2OC(C)=O)CCCC1 [Rocuronium bromide] | 1.01
Nc1nc(N)c2nc(-c3ccccc3)c(N)nc2n1 [Triamterene] | 0.812
C=C1CC[C@H](O)C/C1=C/C=C1\CCC[C@]2(C)[C@@H]([C@H](C)/C=C/[C@H](C)C(C)C)CC[C@@H]12 [Vitamin D2 (Ergocalciferol)] | 1.03
O=C(O)c1cc(O)ccc1O [Gentisic acid] | 0.91
C[N+](C)(C)CC(O)CC(=O)[O-] (racemic) [DL-Carnitine HCl] | 0.931
CC(C)C(=O)c1c(C(C)C)nn2ccccc12 [Ibudilast] | 0.963 ± 0.051
C[N+](C)(C)C[C@H](O)CC(=O)[O-] [L-carnitine (Levocarnitine)] | 1.13
CC(C)NCC(O)COc1cccc2[nH]ccc12 (configuration not stated) [Pindolol] | 0.954
OC(CCN1CCCC1)(c1ccccc1)C1CCCCC1 (configuration not stated) [Procyclidine hydrochloride] | 0.922
COP(=O)(OC)OC(c1ccc(Cl)cc1)P(=O)(OC)OC (configuration not stated) | 0.99
CC(CN(C)C)CN1c2ccccc2CCc2ccccc21 (configuration not stated) [Trimipramine maleate salt] | 1.04
Cn1c(N2CCCCS2(=O)=O)nc(C(=O)NCc2ccc(F)cc2)c(O)c1=O | 1.02
COC(=O)[C@H]1[C@H]2C[C@H]3c4[nH]c5ccccc5c4CCN3C[C@H]2CC[C@@H]1O [Rauwolscine hydrochloride] | 1.04
NC[C@H]1O[C@H](O[C@H]2[C@H](O)[C@@H](O[C@H]3O[C@H](CO)[C@@H](O)[C@H](N)[C@H]3O)[C@H](N)C[C@@H]2N)[C@H](N)C[C@@H]1O [Tobramycin] | 0.968 ± 0.031
C=CCOc1ccccc1OCC(O)CNC(C)C (configuration not stated) [Oxprenolol hydrochloride] | 1.02
Cc1c(N)c(=O)n(-c2ccccc2)n1C [Ampyrone] | 0.942
Nc1nc2c(cnn2CCc2ccccc2)c2nc(-c3ccco3)nn12 | 0.996
CCOC(=O)/C=C(C)/C=C/C=C(C)/C=C/c1c(C)cc(OC)c(C)c1C [Etretinate] | 1.06
CC(C)(C)c1cc(NC(=O)Nc2ccc(-c3cn4c(n3)sc3cc(OCCN5CCOCC5)ccc34)cc2)no1 [Quizartinib (AC220)] | 1.13

SMILES | surface PD-L1 immunofluorescence intensity
CCN(CC)C(=O)Nc1ccc(OCC(O)CNC(C)(C)C)c(C(C)=O)c1 (configuration not stated) [Celiprolol HCl] | 1.08
COc1cc(OC)c(NC(=O)Nc2cc(C)on2)cc1Cl | 1.04
CNC(=O)c1ccc(N2C(=S)N(c3ccc(C#N)c(C(F)(F)F)c3)C(=O)C2(C)C)cc1F [MDV3100 (Enzalutamide)] | 1.08
N[C@H]1CONC1=O [(S)-(-)-Cycloserine] | 1.04
CCCCC1C(=O)N(c2ccccc2)N(c2ccc(O)cc2)C1=O (configuration not stated) [Oxyphenbutazone] | 0.947
O=c1c(O)c(-c2ccc(O)cc2)oc2cc(O)cc(O)c12 [Kaempferol] | 1.03
N#C/C(=C(/N)Sc1ccc(N)cc1)c1ccccc1C(F)(F)F | 0.988 and 0.979
CC(C)(CO)[C@@H](O)C(=O)NCCC(=O)O [Pantothenic acid (pantothenate)] | 0.987
CCN(CC)C(=O)C1(c2ccccc2)CC1CN (configuration not stated) [Milnacipran HCl] | 0.945
Cc1cc(C(C)(C)C)cc(C)c1CC1=NCCN1 [Xylometazoline hydrochloride] | 1
CCN(CCCCOC(=O)c1ccc(OC)c(OC)c1)C(C)Cc1ccc(OC)cc1 (configuration not stated) [Mebeverine hydrochloride] | 0.996
COc1cc(NC(=O)c2ccccn2)ccc1Cl | 1
O=P(O)(O)C(O)(Cn1ccnc1)P(=O)(O)O [Zoledronic Acid (Zoledronate)] | 0.957
O=c1nc2ccccc2c2n1CC(CN1CCN(c3ccccc3)CC1)N2 (configuration not stated) | 1.03
CC#CCn1c(N2CCC[C@@H](N)C2)nc2c1c(=O)n(Cc1nc(C)c3ccccc3n1)c(=O)n2C [Linagliptin (BI-1356)] | 1.02
CCN(CC)CCOCCOC(=O)C1(c2ccccc2)CCCC1 [Carbetapentane citrate] | 0.998 ± 0.032
Nc1c(O)cc(O)cc1C=Cc1ccc(O)cc1 [Aminoresveratrol sulfate] | 1.04
COc1ccc(Cl)cc1C(=O)NCCc1ccc(S(=O)(=O)NC(=O)NC2CCCCC2)cc1 [Glibenclamide] | 0.975 ± 0.094
COc1ccc(Cl)cc1C(=O)NCCc1ccc(S(=O)(=O)NC(=O)NC2CCCCC2)cc1 [Glyburide] | 0.872

Source: the supplement of paper PMC8732350
